This is an account of results in PubChem BioAssay AID1508600 (Functional Genomics Laboratory (NCATS/FGL), 2020).

Among all 53,000 sequences or so, about 3,700 (7%) were called active.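 How the source made its calls: active means gene knockdowns whose robust z-score for IL-1 alpha signal is at least 2 or at most -2, so actives lie on both sides; inactive means the rest.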 The list shows a part of the results.

This assay in a line: Components of the Cytosolic LPS Sensing Pathway: Gene Identification via Genome-wide siRNA Screen.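 Further: robust z of the log signal after scaling to non-targeting control siRNA wells of the plate.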 Particulars: RAW264.7 macrophages, IL-1a HTRF, actives lie on both sides, screened at 100 nM (by protocol), cells primed 5 h with Pam3CSK4 first. The method in brief:
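RAW264.7; siRNA 100 nM final, RNAiMAX, 48h 37 degrees C; Pam3CSK4 5 h; LipidA + TransIT-TKO 24 h; IL-1a HTRF; CellTiter-Glo viability; robust z vs negative-control median.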
Consider GGUCAAGGAAAAAACACUUTT against Nfs1, for which the z-score is inactive: 0.00789.
The result for GGAGAUAAAGAGGAACAUUTT against AI504432 reads inactive: 1.01; that for GGAUAUCUCGGAAAUAGAGTT against Tjp2, inactive: -1.48; that for GGAGUAGCUGAAUCUGAAGTT against Atp5e, inactive: 1.57.
On to GCUUCAUGGUGGAUUCAGATT against Adgrb2, for which the z-score is inactive: 1.8.
With CGAGGUGAUUAAAGAGAUGTT against Ccdc84 the figure was inactive: -0.0752; with GGGUUUGAGGCCUUCUAUGTT against Masp2, inactive: -0.0216; with GCCAGCGUACUCUUUUUAUTT against Ocln, inactive: -0.694.
In the case of GGUUUACAGUAAUUACCAATT against Tex12, the z-score was inactive: -0.446.
The result for GGGACAUAUCUGAAGCAAGTT against Rps26 reads inactive: 0.896; that for CCUGAUUGAUUUUGUUCCCTT against Vmn1r64, inactive: 0.922.
The result for GGCACUAUGUUGAAAAAAUTT against Rnf43 reads inactive: -0.555; that for GCAUUAUGGAUUGACCUAUTT against Noto, inactive: -1.16.
The result for GGACCAGGGCAAAAUAUGATT against Pate6 reads inactive: 0.727; that for “GGCUCAAGAAACUUAAGGATT against 4933411G06Rik”, inactive: -1.33; that for GGAAAGUAGUUGUUUUGAUTT against Rpa1, inactive: -1.09.
In the case of GCCGAGAAUAGAAGACUCATT against Mtrex, the z-score was inactive: -1.47.
The result for GGCUCUAAGCUAAAUAAAGTT against Kbtbd4 reads inactive: -0.249.
As for “GGUACAGAUGGUGUACAAUTT against 4930595M18Rik”, the z-score is inactive: 1.58.
Regarding GGGAGAUGAGUUUUCUGAUTT against Cyp2c70, the z-score was inactive: 1.15.
As for GGAGUUAGUGAGCUUUGAGTT against Zfp426, the z-score is inactive: -0.349.
With GGCAACAGUGCAUUCAAGUTT against Nptx2 the figure was active: 3.39; with GGGAUAUCCCAGAACAAGATT against Vps37a, inactive: 0.336; with CGUGUACUCUUCUUGUACATT against Ranbp17, inactive: -1.94.
For GCUUAAGUUAUGGAUAGCATT against Pex11b, the z-score was inactive: 0.813.
With GCUGAUUUCAUUGCAUCCGTT against Olfr483 the figure was active: 2.12; with CCAAUUCCUGGGUGCACACTT against Olfr309, inactive: -0.691.
The result for GGAGCUUGGGUUUAAGAUATT against Atad5 reads inactive: 0.0095; that for GGAAGAGUUAGCUUAGUAUTT against Ypel1, inactive: 0.648.
As to CCUUGAAUCAAUUGAUAGUTT against Lyplal1, the z-score is inactive: 1.05.
With CCAAUAGUUGUGGACAUGATT against Crisp1 the figure was inactive: 1.82.
The result for GCAGUUUGACAACUUAAACTT against Mtus1 reads inactive: -0.231; that for CGUUUCAAUCAGAGGACUUTT against Zfp704, inactive: 0.478.
With GGAAAGGACAAAAGAAAGATT against Irx3, the z-score is inactive: -1.69.
The result for GGUAGAGGUUAUAUAGGCATT against Ms4a6d reads inactive: 0.282.
With GGUUCAUCUGAAAACAGGUTT against Osgepl1 the figure was inactive: -0.781; with CAGGCAAAAUAUCGAACAATT against Pstpip1, inactive: 0.509; with CGUUAUGCGGUUUUUCCAUTT against Ndufa6, inactive: 1.57.
With GCCUGGAUUAUAGGAUCACTT against Tmem208 the figure was inactive: -1.45; with GGGCAUAAUGGUUUUUAUGTT against H3c3, inactive: -0.487; with GGAGAGAGGGAAAAAAGAATT against Sox4, inactive: -0.317.
Consider GCAUGAAUAGCAAGCGAAGTT against Klhl18, for which the z-score was inactive: 0.562.
The result for CGUGCUAAACAUUGACACCTT against Stx1b reads inactive: 1.16; that for GGAUGAUGACAUCUUCAACTT against B4galt2, inactive: 0.012.
With CGAUCAUUAAGCAAGUGAUTT against Abi3bp the figure was inactive: 0.275.
With GGCUCGCCUGAGAAAGUCUTT against Nudt7 the figure was inactive: 1.16.
With GGACUUGUACCUGACCUGATT against Iscu, the z-score was inactive: 0.276.
The result for GGAGAUGAUAAAGAUUAACTT against Glyr1 reads inactive: 0.59.
As for “GGUGCAAUCCUACAGUUCUTT against 1110008P14Rik”, the z-score is inactive: -0.762.
With CGACAUCUCUAAAGUUAAATT against Map7d3 the figure was inactive: 0.762; with CCAAUUUAACUGUUGGUGGTT against Supt5, inactive: -0.105.
Turning to GGUAAAAGUCGAUGGCCAGTT against Calr3, the z-score is inactive: 1.06.
The result for GGAAUAUGACUUCAAGAUGTT against Lmnb2 reads active: 4.28; that for GGAAAAUGUCAAAAUUGGCTT against Rfc4, inactive: -0.289; that for CCCAGAAUUGAACUAAAAATT against Mrpl32, inactive: -0.488.
The result for GACAAAGUAACAUCUGUAUTT against Olfr1447 reads inactive: -1.6.
Regarding GCACUUUGUGCUAUAUAAGTT against Mapk14, the z-score was inactive: 0.616.
The result for GCUAAGACUGUACUGUGACTT against Plekha8 reads inactive: -0.351; that for GGUGGUGGUACUGGUCAAUTT against Dhx58, inactive: 0.314.
With GCAAGACUGGCAAAGCUUCTT against Ccdc174 the figure was inactive: 0.368.
The result for “GAGUCUUGUUUGAAAGAACTT against F730035P03Rik” reads inactive: -1.17; that for GGCUGUCCGUACCUAUAAATT against Cpb1, inactive: -1.26.
GGAGAAUGAACAGACAGAGTT against Slc39a14: the z-score is active: -2.06.
The result for GGAGUCCUUUAAGAUUAUATT against Pex13 reads inactive: 1.3.
Regarding GGGUUACAGAAUCUGUUAATT against Nup153, the z-score is inactive: -0.112.
The result for GGAAGUGAAAGGUAAAUAGTT against Cyb5r3 reads inactive: -1.35; that for GCACUGACGACAAAAGUUCTT against Ngdn, inactive: -0.407.
GGCAUGUGAUCUACCAAUCTT against Ly6g5b: the z-score was inactive: 0.0456.
GCUGAAUCACAAGUACUGGTT against Ublcp1: the z-score was inactive: -1.58.
For GGAGCAGAACAUUAUCUUCTT against Tnn, the z-score was inactive: 0.603.
With GGGAAUACAUUUGAGAUGATT against Ptgfrn the figure was inactive: -1.75; with GGAAGAUGCCUUUUCCAAGTT against Syt1, inactive: 0.752.
The result for GCGCAUCAGAGUCUCAUAATT against Hivep1 reads inactive: -1.39; that for CCGAAGACUAGCUAAUUUUTT against Sult1c1, inactive: 1.17; that for CCUAUCUAUGACCUCACAUTT against Rorb, inactive: -0.277.
The result for GGUAAAUUACAAAGUGAAGTT against Prxl2a reads inactive: -1.88.
For the sequence GCAUUUAGUGAGUUCAGUGTT against Kirrel3os, the z-score is inactive: 0.855.
With CCUGAGGUUACAAGACGGUTT against Dll3 the figure was inactive: 1.56; with GGCUCAGAAACAACAGGCUTT against Sh2d3c, inactive: -1.19.
In the case of GGCCAUAGAAAUAAUGCUATT against Dcaf8, the z-score is inactive: 0.454.
With GCGGCUGAUACACUUUGUATT against Maob the figure was inactive: -0.515; with GGACCUGGAUUUGUGCUUUTT against Smim3, inactive: -1.04; with CCUUGCUACGGAUUGGAGATT against Spint4, inactive: 0.1.
With GGCUACCGUGAAGAUGGAGTT against Fabp6 the figure was inactive: -0.537; with GCUGAAACAUCGGUAUGAGTT against Pla2g4c, inactive: -0.0845.
In the case of UGAUAUUUGGUGUAUUCAGTT against Olfr972, the z-score is active: -2.06.
The result for GGGUGACUUAGAAUUCUGUTT against Diras1 reads inactive: 0.368; that for GGUCCUUUGUCUAUAUCAATT against Suv39h1, inactive: 1.25; that for CCAAAAAAUCCUAUACUCUTT against Cdh8, inactive: 1.42.
The result for GGAAGAAGUGGAUGCUGGATT against Hecw1 reads inactive: -0.0276; that for GCUGAUGACCACUGAGUUUTT against Tsr2, inactive: 1.34; that for GCUAUUAAAGAGCCCACAATT against Sh3glb2, inactive: -0.49.
With GGGUGUCAAUCUAAAACAUTT against Cby1 the figure was inactive: -0.998.
In the case of “GGCCUGGAAUAGAUUUGUGTT against 2210016L21Rik”, the z-score was inactive: 0.855.
With CGGAUUGACAAGUUUGCUATT against Tmem129 the figure was inactive: -0.355.
With GAAGACUCUCCAUUGGGUGTT against Lce1g the figure was inactive: 1.33.
Turning to GGAUAAAACUGGUUACUCUTT against Adgrf1, the z-score was inactive: 0.193.
Consider GGAGAGCAGUAUGAGAUCUTT against Galnt10, for which the z-score was inactive: -0.379.
Turning to GCACUCAGAACAACUAAAATT against Dglucy, the z-score is inactive: 0.641.
The result for GGCUUUGGCUCCAUUAUUCTT against Trmt6 reads inactive: -0.545; that for “GCAGAUAGAAGACUGGAAUTT against 1700024G13Rik”, inactive: 0.424.
With GGUGAAGGCCUAUGAGAAGTT against Nosip, the z-score is inactive: -0.211.
Take GGCCGCACCAUGUAUGUCATT against Pck1: the z-score was inactive: 0.866.
The result for GGACCAUUCUUGCGUUCGUTT against Cacng7 reads inactive: 1.66.
With GGCCUCAAGGUGAUGGAAATT against Cdcp3 the figure was inactive: -1.4; with GGAAAAUACAUUGAUGAGCTT against Xrcc4, inactive: -0.575.
